PMC11980836
Where two headings read alike, the source gives them in different places. Results are given in words; binding and its absence hold for the method and conditions named. Binding seen in cells or lysates may run through a third protein. A yes stands for co-enrichment or nearness to the bait. Other partners may have been found. Tags and fused reporters may be left off the sequences shown.

Chains of the proteins cited; added tags and fusions are not shown.
UniProt Q6P444: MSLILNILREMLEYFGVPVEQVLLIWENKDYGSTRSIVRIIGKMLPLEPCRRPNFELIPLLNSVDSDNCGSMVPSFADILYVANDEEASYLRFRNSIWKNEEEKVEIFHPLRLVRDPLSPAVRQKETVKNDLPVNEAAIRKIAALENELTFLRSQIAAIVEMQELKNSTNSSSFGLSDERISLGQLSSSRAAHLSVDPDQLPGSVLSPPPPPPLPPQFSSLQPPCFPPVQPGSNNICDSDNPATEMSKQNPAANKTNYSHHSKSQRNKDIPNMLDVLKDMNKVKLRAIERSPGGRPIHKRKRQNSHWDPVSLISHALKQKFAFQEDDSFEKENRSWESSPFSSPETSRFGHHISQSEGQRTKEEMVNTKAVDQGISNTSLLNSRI

T1: Flag-tagged ARMC1 (F-ARMC1), wild type (UniProt Q9NVT9)
T1 sequence: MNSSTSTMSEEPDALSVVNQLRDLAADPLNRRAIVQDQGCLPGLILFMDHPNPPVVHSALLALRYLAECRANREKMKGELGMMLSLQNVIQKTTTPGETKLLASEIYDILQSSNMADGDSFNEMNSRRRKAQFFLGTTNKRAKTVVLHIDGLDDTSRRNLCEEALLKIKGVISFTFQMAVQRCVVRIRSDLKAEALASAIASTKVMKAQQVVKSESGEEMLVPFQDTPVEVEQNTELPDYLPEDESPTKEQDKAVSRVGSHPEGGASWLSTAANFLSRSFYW


Columns and labels:
[1] = biological target: T1, Flag-tagged ARMC1 (F-ARMC1), wild type; assay: affinity purification with mass spectrometry; large-scale: F-ARMC1 captured on M2 anti-Flag resin from the 1% digitonin-solubilized membrane fraction of Flp-In 293 T-REx rescue cells, washed in RNC buffer with 0.25% digitonin, eluted with 3xFlag peptide; SDS-PAGE with Coomassie staining, mass spectrometry and immunoblotting of input, flow-through and elution
[2] = biological target: T1, Flag-tagged ARMC1 (F-ARMC1), wild type; assay: as above; remark: listed apart in the source

binding [1] | binding [2] | Molecule
binds | – | MTFR2, endogenous (from UniProt Q6P444 1-385)
– | binds | metaxin 1 (MTX1) (protein, UniProt Q13505 1-466) MLLGGPPRSPRSGTSPKGPWSSTGHVQFGKSPQTWPRRTRPRSPEPAAPSGVRGSTWTRRRDSPRRAGPTALSRYVGHLWMGRRPPSPEARGPVPRSSAASRARRSLASPGISPGPLTATIGGAVAGGGPRQGRAEAHKEVFPGQRVGKMAAPMELFCWSGGWGLPSVDLDSLAVLTYARFTGAPLKVHKISNPWQSPSGTLPALRTSHGEVISVPHKIITHLRKEKYNADYDLSARQGADTLAFMSLLEEKLLPVLVHTFWIDTKNYVEVTRKWYAEAMPFPLNFFLPGRMQRQYMERLQLLTGEHRPEDEEELEKELYREARECLTLLSQRLGSQKFFFGDAPASLDAFVFSYLALLLQAKLPSGKLQVHLRGLHNLCAYCTHILSLYFPWDGAEVPPQRQTPAGPETEEEPYRRRNQILSVLAGLAAMVGYALLSGIVSIQRATPARAPGTRTLGMAEEDEEE
